Measurements reported in PubChem BioAssay AID1508597 (Cure First, 2020)
Purpose: 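Knock-downs altering ovarian cancer cell survival with or without PARP inhibitor rucaparib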 (primary screen). Cell system: human ovarian carcinoma lines grown from tumours: OCI-P5x (papillary serous) and OCI-C5x (clear cell). Reagents: siRNA pool against human genes, 1.25 pmol siRNA per well. Timing: 72 h or 96 h, depending on the cell culture. Treatment: rucaparib 20 µM (about IC30) or vehicle, present until read-out. Rucaparib or vehicle: Rucaparib. Cell line: OCI-P5x (serous). Measurement: 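ATP luminescence measured at 72 or 96 h according to the culture, then normalised and expressed as percent viability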. Direction: viability, normalised: higher = more viable cells remaining. Active means: 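a well counts as a hit if its normalised viability is under 80 percent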. Calls: active = viability under 80%; inactive = viability 80% or more.
Shown is an unselected part of the about 2,100 reagents, under one of the conditions tested. 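Calls flag viability under 80% in either arm, not effects specific to rucaparib; the reference for percent is not stated.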 A reagent listed more than once was tested more than once; the source does not tell the runs apart. Not given: the 100% reference.

ZFAT, technical replicate 1
- viability, normalised (%): 57.4
- Call: active

ZFAT, technical replicate 2
- viability, normalised (%): 55.1
- Call: active

ZFAT, technical replicate 3
- viability, normalised (%): 51.4
- Call: active

DHX35, technical replicate 1
- viability, normalised (%): 49.9
- Call: active

DHX35, technical replicate 2
- viability, normalised (%): 76.3
- Call: active

DHX35, technical replicate 3
- viability, normalised (%): 76.4
- Call: active

MECP2, technical replicate 1
- viability, normalised (%): 38
- Call: active

MECP2, technical replicate 2
- viability, normalised (%): 44.7
- Call: active

MECP2, technical replicate 3
- viability, normalised (%): 38.3
- Call: active

PTK6, technical replicate 1
- viability, normalised (%): 87.4
- Call: inactive

PTK6, technical replicate 2
- viability, normalised (%): 89.5
- Call: inactive

PTK6, technical replicate 3
- viability, normalised (%): 72.9
- Call: active

APC, technical replicate 1
- viability, normalised (%): 63.7
- Call: active

APC, technical replicate 1
- viability, normalised (%): 61.2
- Call: active

APC, technical replicate 2
- viability, normalised (%): 53.2
- Call: active

APC, technical replicate 2
- viability, normalised (%): 83.2
- Call: inactive

APC, technical replicate 3
- viability, normalised (%): 74.7
- Call: active

APC, technical replicate 3
- viability, normalised (%): 51
- Call: active

TNIK, technical replicate 1
- viability, normalised (%): 97.4
- Call: inactive

TNIK, technical replicate 2
- viability, normalised (%): 117
- Call: inactive

TNIK, technical replicate 3
- viability, normalised (%): 64.6
- Call: active

UVRAG, technical replicate 1
- viability, normalised (%): 84.5
- Call: inactive

UVRAG, technical replicate 2
- viability, normalised (%): 79.2
- Call: active

UVRAG, technical replicate 3
- viability, normalised (%): 76.2
- Call: active

CDK14, technical replicate 1
- viability, normalised (%): 97.4
- Call: inactive

CDK14, technical replicate 2
- viability, normalised (%): 98.9
- Call: inactive

CDK14, technical replicate 3
- viability, normalised (%): 85.5
- Call: inactive

MAP2K1, technical replicate 1
- viability, normalised (%): 70.4
- Call: active

MAP2K1, technical replicate 2
- viability, normalised (%): 103
- Call: inactive

MAP2K1, technical replicate 3
- viability, normalised (%): 75.7
- Call: active

RALB, technical replicate 1
- viability, normalised (%): 64.5
- Call: active

RALB, technical replicate 2
- viability, normalised (%): 74.6
- Call: active

RALB, technical replicate 3
- viability, normalised (%): 47.4
- Call: active

Copied from the listing, 5 entries:
APC, technical replicate 1
- viability, normalised (%): 61.2
- Call: active

APC, technical replicate 2
- viability, normalised (%): 53.2
- Call: active

APC, technical replicate 2
- viability, normalised (%): 83.2
- Call: inactive

APC, technical replicate 3
- viability, normalised (%): 74.7
- Call: active

APC, technical replicate 3
- viability, normalised (%): 51
- Call: active
